{"source": "patent US11684614B2", "about": "“Formulations of hydroxypyridonate actinide/lanthanide decorporation agents” (priority 2017, dated 2023)", "key": {"[1]": {"format": "in vivo, Swiss-Webster mice", "conditions": "iv, mice", "excerpt": "(§1) Formulated material was used in the single dose in vivo ADME characterization studies in Sprague Dawley rats and Swiss-Webster mice with 14C-labeled 3,4,3-L1(1,2-HOPO).\n(§2) Pharmacokinetic parameters and disposition/biodistribution of 3,4,3-L1(1,2-HOPO) were characterized in vivo (with the aid of two 14C labels on the spermine backbone of the parent product) in two non-GLP studies using Swiss-Webster mice and Sprague Dawley rats. The study designs for these two studies are shown in TABLE 5.1 and TABLE 5.2, respectively. Groups of six mice (3 male, 3 female) were given a single dose of [14C]-3,4,3-L1(1,2-HOPO) via iv, ip, or po routes, respectively. An additional group of six mice (3 male, 3 female) were administered the 14C-labeled API with permeability enhancer (10% sodium oleate) by oral gavage (po). Similarly, groups of six rats (3 male, 3 female) were administered a single iv dose of the 14C-labeled API or a single po dose of the 14C-labeled API with 10% sodium oleate. In each of these studies, samples were collected at scheduled time points up to 24 hr post-dose and analyzed for 14C content using liquid scintillation counting. Blood, liver, kidney, feces and urine were collected and analyzed from the mice. Blood, brain, liver, kidney, lungs, spleen, skeletal muscle tissues, gastrointestinal (GI) tract samples, carcasses, feces, and urine were collected and analyzed from the rats."}, "[2]": {"assay": "Radiolabeled in vivo ADME study in rats (with metabolite profiling)", "parameters": "species or system Sprague Dawley rats", "conditions": "iv", "excerpt": "as §1\nas §2, with “An additional group of six mice (3 male, 3 female) were administered the 14C-labeled API with permeability enhancer (10% sodium oleate) by oral gavage (po). Similarly, groups of six rats (3 male, 3 female) were administered a single iv dose of the 14C-labeled API or a single po dose of the 14C-labeled API with 10% sodium oleate.” left out\nThe principal excretion routes of radioactivity from [14C]-3,4,3-L1(1,2-HOPO) were both the feces and urine after an iv dose based on high levels of radioactivity in both feces and urine as well as significant radioactivity in the excretory tissues, kidney, liver and GI tract. […]"}}, "note": "Like-named read-outs stand apart in the source and are kept apart here. The name of at least one read-out is uncertain.", "data": [{"substance": "[14C]-3,4,3-L1(1,2-HOPO)", "values": [{"measurement": "t½ (radioactivity cleared from plasma)", "setting": "[1]", "result": "approximately 1.6 hr"}, {"measurement": "t½ (radioactivity cleared from plasma)", "setting": "[2]", "result": "~8", "unit": "h"}]}]}
